Test results as given in patent US20160319032A1.
Results are given in words; binding and its absence hold for the method and conditions named. Some entries that bind do so weakly or less than the wild type.

The chains behind the UniProt entries cited, without tags or fusion partners. Where a name states a change or a piece, a line headed by the entry shows the natural chain unless it says otherwise.
UniProt P06756: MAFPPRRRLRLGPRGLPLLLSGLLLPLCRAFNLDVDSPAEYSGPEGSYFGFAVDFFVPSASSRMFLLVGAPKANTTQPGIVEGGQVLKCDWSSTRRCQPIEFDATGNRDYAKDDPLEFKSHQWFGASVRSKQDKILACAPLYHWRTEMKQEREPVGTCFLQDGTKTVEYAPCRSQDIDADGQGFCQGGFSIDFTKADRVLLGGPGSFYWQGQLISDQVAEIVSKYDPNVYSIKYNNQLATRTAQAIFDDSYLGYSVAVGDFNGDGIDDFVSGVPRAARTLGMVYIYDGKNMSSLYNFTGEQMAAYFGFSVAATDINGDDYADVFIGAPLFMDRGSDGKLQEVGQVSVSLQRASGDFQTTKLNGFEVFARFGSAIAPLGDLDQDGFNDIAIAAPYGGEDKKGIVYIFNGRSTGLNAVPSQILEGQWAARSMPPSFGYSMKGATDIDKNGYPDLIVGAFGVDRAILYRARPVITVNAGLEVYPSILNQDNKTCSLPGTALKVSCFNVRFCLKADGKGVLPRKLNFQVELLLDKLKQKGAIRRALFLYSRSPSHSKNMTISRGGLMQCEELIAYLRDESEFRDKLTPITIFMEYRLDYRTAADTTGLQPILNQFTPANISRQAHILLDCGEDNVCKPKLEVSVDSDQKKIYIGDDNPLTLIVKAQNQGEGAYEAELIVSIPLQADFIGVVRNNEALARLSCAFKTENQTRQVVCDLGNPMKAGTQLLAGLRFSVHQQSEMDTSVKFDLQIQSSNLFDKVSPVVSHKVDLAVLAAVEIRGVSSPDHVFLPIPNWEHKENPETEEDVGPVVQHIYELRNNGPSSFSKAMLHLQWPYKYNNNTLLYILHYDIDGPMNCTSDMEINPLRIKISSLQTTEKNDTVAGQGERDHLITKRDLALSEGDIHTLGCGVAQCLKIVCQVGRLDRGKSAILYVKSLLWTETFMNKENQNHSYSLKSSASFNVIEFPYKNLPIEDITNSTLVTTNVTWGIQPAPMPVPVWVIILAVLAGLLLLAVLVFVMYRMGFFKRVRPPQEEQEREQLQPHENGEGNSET
UniProt P18564: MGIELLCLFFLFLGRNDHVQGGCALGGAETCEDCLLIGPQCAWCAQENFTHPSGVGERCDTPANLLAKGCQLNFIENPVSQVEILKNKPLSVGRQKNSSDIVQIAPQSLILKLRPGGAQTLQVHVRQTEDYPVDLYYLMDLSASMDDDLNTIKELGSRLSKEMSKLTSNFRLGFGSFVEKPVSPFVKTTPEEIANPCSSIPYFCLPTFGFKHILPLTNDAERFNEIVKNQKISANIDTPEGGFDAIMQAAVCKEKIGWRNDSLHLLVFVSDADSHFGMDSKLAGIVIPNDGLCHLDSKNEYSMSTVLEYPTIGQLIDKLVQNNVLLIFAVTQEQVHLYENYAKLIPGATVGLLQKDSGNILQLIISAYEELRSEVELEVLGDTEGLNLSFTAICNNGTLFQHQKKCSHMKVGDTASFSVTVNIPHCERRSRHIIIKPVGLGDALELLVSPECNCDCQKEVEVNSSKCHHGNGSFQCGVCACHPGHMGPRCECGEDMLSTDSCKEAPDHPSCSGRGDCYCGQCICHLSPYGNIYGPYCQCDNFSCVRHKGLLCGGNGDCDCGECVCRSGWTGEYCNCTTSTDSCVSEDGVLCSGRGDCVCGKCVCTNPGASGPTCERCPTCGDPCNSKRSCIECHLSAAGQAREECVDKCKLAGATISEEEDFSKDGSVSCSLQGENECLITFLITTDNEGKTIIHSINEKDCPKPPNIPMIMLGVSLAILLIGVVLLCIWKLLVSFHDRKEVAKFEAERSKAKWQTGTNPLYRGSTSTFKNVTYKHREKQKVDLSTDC

Biological target: soluble αVβ6 (human) (UniProt P06756+P18564)
Assay: ELISA, recombinant antibody on αVβ6

B1: sc 277 (antibody, V domains shown)
VH: EVQLVQSGAEVKKPGESLKISCKGSGYSFPSYWIGWVRQMPGKGLEWMGIIYPGDSDTRYSPSFQGQVTISADKSISTAYLQWSSLKASDTAMYYCARHPMEDGMDVWGQGTTVTVSS
VL: SYELTQPPSVSVSPGQTARITCSGDALPKKYAFWYQQKSGQAPVLVIYDDNKRPSGIPERFSGSSSGTMATLTITGAQVEDEADYYCYSTDSSGHHVFGGGTKLTVL
  binding: binds

B2: sc 161 (antibody, V domains shown)
VH: EVQLVQSGAEVKKPGESLKISCKGSGYSFTSYWIGWVRQMPGKGLEWMGIIYPGDSDTRYSPSFQGQVTISADKSISTAYLQWSSLKASDTAMYYCARHGIAAAGFYYYYMDVWGQGTTVTVSS
VL: EIVLTQSPDTLSLSPGERASLSCRASQNVNRNYLVWYQQKPGQAPRLLIYGTSNRATGIPDRFSGSGSGTDFTLTISRLEPEDFAVYYCQQCGSLPFTFGPGTKVDIKR
  binding: binds
